Assay results taken from the supplement of paper PMC10849652.
This is one part of the list.

By UniProt entry, the sequences of proteins in these tests, tags left out. Where a name states a change or a piece, a line headed by the entry shows the natural chain unless it says otherwise.
UniProt O14802: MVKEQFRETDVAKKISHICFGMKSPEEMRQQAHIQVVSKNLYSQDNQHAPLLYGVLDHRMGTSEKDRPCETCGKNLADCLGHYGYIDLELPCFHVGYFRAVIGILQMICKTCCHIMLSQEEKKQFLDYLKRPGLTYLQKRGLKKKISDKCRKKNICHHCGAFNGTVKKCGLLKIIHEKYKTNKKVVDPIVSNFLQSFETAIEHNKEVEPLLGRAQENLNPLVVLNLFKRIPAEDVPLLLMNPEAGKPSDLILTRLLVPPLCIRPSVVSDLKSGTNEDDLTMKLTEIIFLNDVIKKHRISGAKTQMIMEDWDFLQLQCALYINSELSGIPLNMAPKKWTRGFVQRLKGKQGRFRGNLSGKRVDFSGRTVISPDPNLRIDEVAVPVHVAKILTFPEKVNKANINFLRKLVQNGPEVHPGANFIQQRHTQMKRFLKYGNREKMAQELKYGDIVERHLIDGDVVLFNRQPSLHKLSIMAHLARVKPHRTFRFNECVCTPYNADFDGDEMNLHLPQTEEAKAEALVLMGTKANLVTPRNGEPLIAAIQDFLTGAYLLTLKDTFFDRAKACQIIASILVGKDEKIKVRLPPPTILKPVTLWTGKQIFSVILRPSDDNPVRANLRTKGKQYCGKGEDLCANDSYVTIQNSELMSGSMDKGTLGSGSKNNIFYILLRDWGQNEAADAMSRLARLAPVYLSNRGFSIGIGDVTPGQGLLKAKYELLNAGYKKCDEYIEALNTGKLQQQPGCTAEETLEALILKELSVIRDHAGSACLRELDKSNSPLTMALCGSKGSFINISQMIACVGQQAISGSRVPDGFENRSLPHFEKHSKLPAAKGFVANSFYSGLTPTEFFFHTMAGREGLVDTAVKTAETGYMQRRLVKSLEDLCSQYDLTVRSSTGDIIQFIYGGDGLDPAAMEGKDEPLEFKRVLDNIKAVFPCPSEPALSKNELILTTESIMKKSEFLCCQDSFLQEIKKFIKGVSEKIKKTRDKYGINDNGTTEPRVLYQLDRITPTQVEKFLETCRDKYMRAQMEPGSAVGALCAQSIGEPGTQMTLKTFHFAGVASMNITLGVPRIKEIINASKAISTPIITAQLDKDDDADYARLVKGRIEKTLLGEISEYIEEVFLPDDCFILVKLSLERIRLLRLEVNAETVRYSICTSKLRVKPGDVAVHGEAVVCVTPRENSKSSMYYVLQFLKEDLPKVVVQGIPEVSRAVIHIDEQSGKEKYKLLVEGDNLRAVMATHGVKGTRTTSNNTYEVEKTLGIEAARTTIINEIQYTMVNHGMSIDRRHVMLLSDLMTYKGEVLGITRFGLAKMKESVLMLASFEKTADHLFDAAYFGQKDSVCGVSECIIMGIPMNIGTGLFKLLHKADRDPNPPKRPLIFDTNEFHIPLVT
UniProt P29590: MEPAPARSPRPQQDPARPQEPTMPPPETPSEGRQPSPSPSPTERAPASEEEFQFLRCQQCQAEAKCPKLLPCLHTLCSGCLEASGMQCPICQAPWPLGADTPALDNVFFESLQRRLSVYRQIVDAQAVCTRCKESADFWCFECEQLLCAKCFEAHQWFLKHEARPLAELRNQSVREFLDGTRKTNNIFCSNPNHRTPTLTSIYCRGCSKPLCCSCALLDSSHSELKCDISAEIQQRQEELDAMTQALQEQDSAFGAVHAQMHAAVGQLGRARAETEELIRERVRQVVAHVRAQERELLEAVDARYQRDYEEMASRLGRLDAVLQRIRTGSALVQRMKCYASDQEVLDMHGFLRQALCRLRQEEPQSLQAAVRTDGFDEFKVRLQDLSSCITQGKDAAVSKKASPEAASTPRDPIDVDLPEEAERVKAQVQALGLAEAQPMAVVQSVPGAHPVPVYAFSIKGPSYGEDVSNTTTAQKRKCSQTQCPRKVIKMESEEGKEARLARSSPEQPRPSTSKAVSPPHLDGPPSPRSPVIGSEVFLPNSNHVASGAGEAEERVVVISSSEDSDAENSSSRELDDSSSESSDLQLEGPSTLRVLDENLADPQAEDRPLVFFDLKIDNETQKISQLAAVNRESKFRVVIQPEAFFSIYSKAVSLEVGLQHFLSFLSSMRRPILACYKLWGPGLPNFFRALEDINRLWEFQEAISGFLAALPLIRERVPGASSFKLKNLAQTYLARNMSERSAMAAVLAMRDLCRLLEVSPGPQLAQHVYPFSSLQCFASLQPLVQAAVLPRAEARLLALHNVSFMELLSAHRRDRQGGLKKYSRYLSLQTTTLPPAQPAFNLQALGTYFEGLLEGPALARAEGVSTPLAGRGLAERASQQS
UniProt Q8WUA2: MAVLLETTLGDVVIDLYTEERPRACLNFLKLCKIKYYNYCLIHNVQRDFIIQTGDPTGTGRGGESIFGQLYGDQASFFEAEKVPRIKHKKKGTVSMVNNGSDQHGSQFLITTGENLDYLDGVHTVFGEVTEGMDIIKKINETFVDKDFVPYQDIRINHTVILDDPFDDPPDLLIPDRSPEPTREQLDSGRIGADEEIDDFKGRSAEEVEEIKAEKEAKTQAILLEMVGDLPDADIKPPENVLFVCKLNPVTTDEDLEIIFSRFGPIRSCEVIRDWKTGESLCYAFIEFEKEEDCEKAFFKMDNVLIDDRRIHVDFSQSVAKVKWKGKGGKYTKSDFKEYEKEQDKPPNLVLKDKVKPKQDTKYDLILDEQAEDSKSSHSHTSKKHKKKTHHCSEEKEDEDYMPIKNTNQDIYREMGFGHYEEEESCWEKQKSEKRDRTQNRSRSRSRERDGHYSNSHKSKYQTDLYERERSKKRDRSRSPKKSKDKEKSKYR
UniProt Q99575: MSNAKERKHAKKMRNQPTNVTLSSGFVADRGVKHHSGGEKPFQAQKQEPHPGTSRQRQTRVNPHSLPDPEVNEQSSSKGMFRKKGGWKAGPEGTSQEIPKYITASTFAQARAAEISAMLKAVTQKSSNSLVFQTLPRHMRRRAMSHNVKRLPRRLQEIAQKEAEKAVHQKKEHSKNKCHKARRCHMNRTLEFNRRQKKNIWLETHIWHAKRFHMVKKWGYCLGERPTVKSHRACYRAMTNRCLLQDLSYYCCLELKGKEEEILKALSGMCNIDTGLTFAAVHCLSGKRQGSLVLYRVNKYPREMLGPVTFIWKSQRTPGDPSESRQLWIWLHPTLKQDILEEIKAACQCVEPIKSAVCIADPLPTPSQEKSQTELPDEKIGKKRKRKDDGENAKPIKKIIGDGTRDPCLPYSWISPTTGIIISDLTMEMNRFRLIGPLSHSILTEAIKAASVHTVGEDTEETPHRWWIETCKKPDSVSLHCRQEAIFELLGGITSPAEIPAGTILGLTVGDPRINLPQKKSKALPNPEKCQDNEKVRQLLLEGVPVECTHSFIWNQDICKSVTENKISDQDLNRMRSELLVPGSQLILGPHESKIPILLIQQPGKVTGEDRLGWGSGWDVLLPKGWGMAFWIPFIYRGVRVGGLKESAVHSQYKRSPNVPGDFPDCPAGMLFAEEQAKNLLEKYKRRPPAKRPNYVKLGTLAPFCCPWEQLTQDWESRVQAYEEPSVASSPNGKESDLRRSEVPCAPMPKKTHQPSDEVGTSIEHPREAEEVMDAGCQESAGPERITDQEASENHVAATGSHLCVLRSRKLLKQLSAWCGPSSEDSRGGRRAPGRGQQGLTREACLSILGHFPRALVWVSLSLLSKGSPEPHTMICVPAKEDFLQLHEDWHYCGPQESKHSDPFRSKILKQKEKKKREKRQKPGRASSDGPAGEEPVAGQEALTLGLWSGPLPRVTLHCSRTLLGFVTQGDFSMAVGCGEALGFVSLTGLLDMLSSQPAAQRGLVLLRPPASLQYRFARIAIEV
UniProt Q96AD5: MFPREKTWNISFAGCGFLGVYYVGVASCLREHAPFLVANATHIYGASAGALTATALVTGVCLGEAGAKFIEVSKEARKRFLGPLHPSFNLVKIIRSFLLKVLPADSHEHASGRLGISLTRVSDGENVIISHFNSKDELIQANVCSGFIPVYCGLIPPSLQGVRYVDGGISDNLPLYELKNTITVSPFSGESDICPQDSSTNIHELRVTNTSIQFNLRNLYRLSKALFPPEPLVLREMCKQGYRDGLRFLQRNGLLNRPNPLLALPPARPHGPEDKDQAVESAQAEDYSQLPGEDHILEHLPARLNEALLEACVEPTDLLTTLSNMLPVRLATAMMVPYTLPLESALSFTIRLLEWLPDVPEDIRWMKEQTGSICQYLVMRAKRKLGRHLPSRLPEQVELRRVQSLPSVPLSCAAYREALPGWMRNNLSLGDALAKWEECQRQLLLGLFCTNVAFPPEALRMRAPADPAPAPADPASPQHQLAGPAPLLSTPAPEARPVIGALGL
UniProt P05423: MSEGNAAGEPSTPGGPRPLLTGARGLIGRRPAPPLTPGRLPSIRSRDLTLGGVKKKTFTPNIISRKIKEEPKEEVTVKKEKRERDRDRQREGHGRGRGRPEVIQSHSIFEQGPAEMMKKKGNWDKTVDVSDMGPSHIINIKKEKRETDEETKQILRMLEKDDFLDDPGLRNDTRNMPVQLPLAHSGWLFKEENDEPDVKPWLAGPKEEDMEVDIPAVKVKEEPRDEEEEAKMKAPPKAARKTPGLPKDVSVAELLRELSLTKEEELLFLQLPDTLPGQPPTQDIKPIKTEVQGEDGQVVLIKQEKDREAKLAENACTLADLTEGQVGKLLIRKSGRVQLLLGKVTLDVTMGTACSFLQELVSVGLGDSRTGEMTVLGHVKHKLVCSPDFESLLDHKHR
UniProt Q9NP80: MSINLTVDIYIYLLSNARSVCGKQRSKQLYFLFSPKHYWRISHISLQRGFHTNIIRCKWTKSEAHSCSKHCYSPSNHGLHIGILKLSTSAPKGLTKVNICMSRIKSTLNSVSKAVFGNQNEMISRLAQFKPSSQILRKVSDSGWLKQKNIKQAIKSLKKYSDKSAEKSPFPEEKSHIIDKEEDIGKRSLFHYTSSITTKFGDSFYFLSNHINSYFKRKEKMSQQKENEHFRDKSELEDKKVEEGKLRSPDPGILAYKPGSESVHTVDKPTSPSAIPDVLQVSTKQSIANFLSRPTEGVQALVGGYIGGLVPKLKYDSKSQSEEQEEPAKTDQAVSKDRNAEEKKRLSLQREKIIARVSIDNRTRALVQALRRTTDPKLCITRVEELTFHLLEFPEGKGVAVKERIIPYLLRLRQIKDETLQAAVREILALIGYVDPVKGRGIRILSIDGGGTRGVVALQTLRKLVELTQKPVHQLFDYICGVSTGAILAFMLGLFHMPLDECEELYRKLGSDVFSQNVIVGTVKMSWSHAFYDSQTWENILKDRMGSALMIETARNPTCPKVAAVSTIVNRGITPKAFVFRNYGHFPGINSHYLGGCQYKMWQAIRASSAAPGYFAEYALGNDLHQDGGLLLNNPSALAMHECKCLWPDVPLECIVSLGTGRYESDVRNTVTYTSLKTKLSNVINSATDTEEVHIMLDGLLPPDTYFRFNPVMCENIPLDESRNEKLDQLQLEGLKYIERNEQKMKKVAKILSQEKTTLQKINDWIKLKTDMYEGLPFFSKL
UniProt Q9H307: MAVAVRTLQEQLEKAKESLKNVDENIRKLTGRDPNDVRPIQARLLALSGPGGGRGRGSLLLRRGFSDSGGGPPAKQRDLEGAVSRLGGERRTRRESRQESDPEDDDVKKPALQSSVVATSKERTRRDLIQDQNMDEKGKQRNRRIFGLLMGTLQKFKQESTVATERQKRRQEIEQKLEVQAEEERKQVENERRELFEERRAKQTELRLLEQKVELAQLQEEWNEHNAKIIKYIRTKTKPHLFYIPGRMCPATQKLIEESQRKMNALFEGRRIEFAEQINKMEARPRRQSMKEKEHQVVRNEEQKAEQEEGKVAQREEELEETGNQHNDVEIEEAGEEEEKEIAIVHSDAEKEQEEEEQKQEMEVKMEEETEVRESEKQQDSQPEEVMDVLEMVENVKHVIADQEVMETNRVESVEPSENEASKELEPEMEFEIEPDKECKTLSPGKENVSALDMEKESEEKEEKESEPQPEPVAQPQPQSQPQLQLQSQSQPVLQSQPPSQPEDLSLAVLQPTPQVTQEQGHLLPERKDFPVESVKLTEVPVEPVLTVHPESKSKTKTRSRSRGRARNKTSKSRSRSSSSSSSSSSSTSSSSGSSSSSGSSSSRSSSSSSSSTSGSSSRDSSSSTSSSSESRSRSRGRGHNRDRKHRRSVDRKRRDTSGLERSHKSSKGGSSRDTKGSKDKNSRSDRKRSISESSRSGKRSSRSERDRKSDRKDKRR
UniProt P0CAP2, whole entry, looked up: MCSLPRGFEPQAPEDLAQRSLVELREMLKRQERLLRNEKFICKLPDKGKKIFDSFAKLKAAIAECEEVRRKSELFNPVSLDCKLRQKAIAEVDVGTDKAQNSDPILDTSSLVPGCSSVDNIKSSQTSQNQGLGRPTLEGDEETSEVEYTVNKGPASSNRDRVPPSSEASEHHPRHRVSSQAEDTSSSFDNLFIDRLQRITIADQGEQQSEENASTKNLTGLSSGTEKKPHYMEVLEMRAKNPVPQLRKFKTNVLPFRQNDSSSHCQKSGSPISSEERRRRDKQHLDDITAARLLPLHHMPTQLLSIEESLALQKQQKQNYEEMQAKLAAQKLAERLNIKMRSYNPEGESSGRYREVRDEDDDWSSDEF

Columns and labels:
Test in all cases: log2 fold change, soluble protein after heating vs DMSO (PISA); higher = thermal stabilisation; K562 cells, 10 uM, 30 min; active = over 0.2 and 3.5 SD of the protein, either way, in both replicates (recomputed)
[1] = compound: COC1=CC=C(C=C1)CN2C=CC3=C2C=C(C=C3)C(=O)NO
Summary of the method: (§1)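 Quantification of soluble protein used TMTpro 16plex LC-MS/MS, with channel sums equalised. Samples were the supernatant after 21,000xg for 90 min of pooled aliquots from K562 cells (2×10^6 cells/mL) treated with 10 μM compound for 30 min, heated for 3 min over 48°C-58°C, and extracted in PBS with 0.5% NP-40 at 4°C. Values, from duplicates, describe thermal stability against control samples on a log2 fold-change scale.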

filanesib = compound: CON(C)C(=O)N1N=C(c2cc(F)ccc2F)S[C@@]1(CCCN)c1ccccc1 [filanesib]
Summary of the method: as §1

zotarolimus = compound: CO[C@H]1C[C@@H]2CC[C@@H](C)[C@@](O)(O2)C(=O)C(=O)N2CCCC[C@H]2C(=O)O[C@H]([C@H](C)C[C@@H]2CC[C@H](n3cnnn3)[C@H](OC)C2)CC(=O)[C@H](C)/C=C(\C)[C@@H](O)[C@@H](OC)C(=O)[C@H](C)C[C@H](C)/C=C/C=C/C=C/1C [zotarolimus]
Summary of the method: as §1

idasanutlin = compound: COc1cc(C(=O)O)ccc1NC(=O)[C@@H]1N[C@@H](CC(C)(C)C)[C@](C#N)(c2ccc(Cl)cc2F)[C@H]1c1cccc(Cl)c1F [idasanutlin]
Summary of the method: as §1

alisertib = compound: COc1cc(Nc2ncc3c(n2)-c2ccc(Cl)cc2C(c2c(F)cccc2OC)=NC3)ccc1C(=O)O [alisertib]
Summary of the method: as §1

[2] = compound: COc1cc2nc(-c3cc(F)ccc3O)nc(N[C@@H]3CNC[C@H]3C(C)(C)O)c2cc1OC
Summary of the method: as §1

gefitinib = compound: COc1cc2ncnc(Nc3ccc(F)c(Cl)c3)c2cc1OCCCN1CCOCC1 [gefitinib]
Summary of the method: as §1

[3] = compound: COc1cccc2cc(-c3nc([C@H]4CC[C@H](C(=O)O)CC4)n4ncnc(N)c34)[nH]c12
Summary of the method: as §1

lapatinib = compound: CS(=O)(=O)CCNCc1ccc(-c2ccc3ncnc(Nc4ccc(OCc5cccc(F)c5)c(Cl)c4)c3c2)o1 [lapatinib]
Summary of the method: as §1

pictilisib = compound: CS(=O)(=O)N1CCN(Cc2cc3nc(-c4cccc5[nH]ncc45)nc(N4CCOCC4)c3s2)CC1 [pictilisib]
Summary of the method: as §1

[4] = compound: CS(=O)(=O)c1ccc(-c2cnc(N)c(C(=O)Nc3ccccc3)n2)cc1
Summary of the method: as §1

crizotinib = compound: C[C@@H](Oc1cc(-c2cnn(C3CCNCC3)c2)cnc1N)c1c(Cl)ccc(F)c1Cl [crizotinib]
Summary of the method: as §1

[5] = compound: C[C@@H]1COCCN1C2=NC(=NC(=C2)C3(CC3)S(=O)(=O)C)C4=C5C=CNC5=CC=C4
Summary of the method: as §1

[6] = compound: C[C@H](C1=CC=C(C=C1)C(=O)NC2=C3C=CNC3=NC=C2)N
Summary of the method: as §1

duvelisib = compound: C[C@H](Nc1ncnc2nc[nH]c12)c1cc2cccc(Cl)c2c(=O)n1-c1ccccc1 [duvelisib]
Summary of the method: as §1

gandotinib = compound: Cc1cc(Nc2cc(CN3CCOCC3)c3nc(C)c(Cc4ccc(Cl)cc4F)n3n2)n[nH]1 [gandotinib]
Summary of the method: as §1

tozasertib = compound: Cc1cc(Nc2cc(N3CCN(C)CC3)nc(Sc3ccc(NC(=O)C4CC4)cc3)n2)n[nH]1 [tozasertib]
Summary of the method: as §1

[7] = compound: Cc1cc(SCc2sc(-c3ccc(C(F)(F)F)cc3)nc2C)ccc1OCC(=O)O
Summary of the method: as §1

doramapimod = compound: Cc1ccc(-n2nc(C(C)(C)C)cc2NC(=O)Nc2ccc(OCCN3CCOCC3)c3ccccc23)cc1 [doramapimod]
Summary of the method: as §1

ispinesib = compound: Cc1ccc(C(=O)N(CCCN)[C@@H](c2nc3cc(Cl)ccc3c(=O)n2Cc2ccccc2)C(C)C)cc1 [ispinesib]
Summary of the method: as §1

Measured: log2 fold change

PPFIA1 (UniProt Q13136)
inactive: [1] -0.168 | filanesib 0.101 | zotarolimus 0.211 | idasanutlin 0.049 | alisertib -0.057 | [2] 0.048 | gefitinib -0.082 | [3] -0.076 | lapatinib 0.024 | pictilisib 0.037 | [4] 0.136 | crizotinib 0.019 | [5] -0.042 | [6] 0.104 | duvelisib -0.149 | gandotinib 0.11 | tozasertib 0.008 | [7] 0.175 | doramapimod 0.092 | ispinesib -0.192

POLR3A (UniProt O14802)
inactive: [1] 0.036 | filanesib -0.083 | zotarolimus 0.115 | idasanutlin -0.03 | alisertib -0.047 | [2] -0.037 | gefitinib 0.022 | [3] 0.046 | lapatinib 0.101 | pictilisib 0.074 | [4] 0.036 | crizotinib -0.064 | [5] -0.007 | [6] 0.115 | duvelisib 0.035 | gandotinib -0.214 | tozasertib 0.079 | [7] 0.108 | doramapimod -0.029 | ispinesib -0.111

PLSCR1 (UniProt O15162)
inactive: [1] -0.017 | filanesib 0.01 | zotarolimus -0.012 | idasanutlin 0.033 | alisertib -0.006 | [2] -0.046 | gefitinib 0.016 | [3] 0.145 | lapatinib 0.051 | pictilisib 0.037 | [4] 0.079 | crizotinib 0.017 | [5] 0.101 | [6] -0.024 | gandotinib -0.096 | [7] -0.017 | doramapimod 0.042
active: ispinesib -0.619

POMP (UniProt Q9Y244)
inactive: [1] 0.175 | filanesib 0.082 | zotarolimus 0.012 | idasanutlin 0.115 | alisertib -0.153 | [2] -0.016 | gefitinib 0.076 | [3] -0.03 | lapatinib -0.022 | pictilisib 0.031 | [4] -0.086 | crizotinib -0.059 | [5] -0.023 | [6] -0.076 | gandotinib 0.027 | [7] -0.245 | doramapimod -0.143 | ispinesib 0.108

PML (UniProt P29590)
inactive: [1] -0.043 | filanesib 0.014 | zotarolimus 0.041 | idasanutlin 0.003 | alisertib -0.022 | [2] -0.026 | gefitinib -0.015 | [3] -0.081 | lapatinib 0.024 | pictilisib 0.119 | [4] -0.011 | crizotinib 0.017 | [5] 0.025 | [6] -0.027 | gandotinib -0.019 | [7] -0.051 | doramapimod -0.054 | ispinesib -0.027

PLEKHM2 (UniProt Q8IWE5)
inactive: [1] 0.007 | filanesib -0.09 | zotarolimus 0.053 | idasanutlin -0.083 | alisertib 0.044 | [2] -0.041 | gefitinib 0.075 | [3] -0.041 | lapatinib 0.084 | pictilisib 0.011 | [4] 0.023 | crizotinib -0.162 | [5] 0.02 | [6] -0.047 | gandotinib -0.06 | [7] 0.04 | doramapimod 0.064 | ispinesib -0.02

PPIL4 (UniProt Q8WUA2)
inactive: [1] -0.001 | filanesib 0.116 | zotarolimus 0.032 | idasanutlin 0.101 | alisertib -0.003 | [2] 0.015 | gefitinib 0.002 | [3] -0.005 | lapatinib 0.02 | pictilisib 0.018 | [4] -0.022 | crizotinib -0.013 | [5] 0.027 | [6] -0.01 | gandotinib 0 | [7] 0.021 | doramapimod 0.019 | ispinesib -0.017

POP1 (UniProt Q99575)
inactive: [1] 0.025 | filanesib -0.023 | zotarolimus 0.033 | idasanutlin -0.009 | alisertib -0.054 | [2] -0.109 | gefitinib 0.012 | [3] 0.021 | lapatinib 0.084 | pictilisib -0.01 | [4] -0.034 | crizotinib 0.02 | [5] -0.023 | [6] -0.05 | gandotinib 0.012 | [7] -0.041 | doramapimod 0.016 | ispinesib 0.039

POLR3H (UniProt Q9Y535)
inactive: [1] -0.012 | filanesib 0.115 | zotarolimus 0.015 | idasanutlin -0.002 | alisertib 0.007 | [2] 0.111 | gefitinib -0.016 | [3] 0.024 | lapatinib -0.035 | pictilisib 0 | [4] -0.011 | crizotinib -0.08 | [5] -0.06 | [6] -0.044 | duvelisib -0.022 | gandotinib -0.178 | [7] 0.004 | doramapimod -0.003 | ispinesib 0.064

PNPLA2 (UniProt Q96AD5)
inactive: [1] -0.089 | filanesib -0.134 | zotarolimus 0.002 | idasanutlin -0.082 | alisertib 0.014 | [2] -0.077 | gefitinib -0.048 | [3] 0.029 | lapatinib -0.032 | pictilisib 0.02 | [4] 0.048 | crizotinib -0.055 | [5] 0.094 | [6] 0.095 | gandotinib -0.303 | [7] -0.065 | doramapimod 0.046
active: ispinesib -0.395

POLR3D (UniProt P05423)
active: idasanutlin 0.574
inactive: [1] -0.014 | filanesib 0.041 | zotarolimus 0.065 | alisertib -0.091 | [2] -0.017 | gefitinib 0.036 | [3] -0.136 | lapatinib -0.001 | pictilisib 0.013 | [4] 0.088 | crizotinib -0.035 | [5] -0.064 | [6] 0.112 | gandotinib -0.056 | [7] -0.085 | doramapimod 0.022 | ispinesib -0.05

PNPLA8 (UniProt Q9NP80)
inactive: [1] -0.061 | filanesib 0.006 | zotarolimus -0.077 | idasanutlin -0.072 | alisertib -0.053 | [2] -0.125 | gefitinib 0.032 | [3] 0.047 | lapatinib -0.022 | pictilisib 0.118 | [4] -0.009 | crizotinib -0.12 | [5] 0.002 | [6] -0.034 | gandotinib 0.031 | [7] -0.002 | doramapimod 0.023 | ispinesib -0.051

PLK1 (UniProt P53350)
inactive: [1] 0.013 | filanesib 0.068 | zotarolimus -0.021 | idasanutlin 0.014 | alisertib 0.02 | [2] 0.092 | gefitinib -0.024 | [3] -0.133 | lapatinib 0.041 | pictilisib -0.072 | [4] -0.113 | crizotinib -0.105 | [5] -0.194 | [6] 0.031 | gandotinib 0.095 | [7] -0.1 | doramapimod 0.032 | ispinesib 0.01

PNN (UniProt Q9H307)
inactive: [1] -0.004 | filanesib 0.083 | zotarolimus -0.047 | idasanutlin 0.125 | alisertib -0.017 | [2] -0.14 | gefitinib 0.031 | [3] 0.056 | lapatinib -0.037 | pictilisib -0.015 | [4] -0.043 | crizotinib -0.154 | [5] 0.022 | [6] -0.05 | gandotinib 0.012 | [7] -0.003 | doramapimod -0.032 | ispinesib -0.08

Quoted from the results shown (two entries):
POLR3D (UniProt P05423)
active: idasanutlin 0.574
inactive: [1] -0.014 | filanesib 0.041 | zotarolimus 0.065 | alisertib -0.091 | [2] -0.017 | gefitinib 0.036 | [3] -0.136 | lapatinib -0.001 | pictilisib 0.013 | [4] 0.088 | crizotinib -0.035 | [5] -0.064 | [6] 0.112 | gandotinib -0.056 | [7] -0.085 | doramapimod 0.022 | ispinesib -0.05

PNPLA8 (UniProt Q9NP80)
inactive: [1] -0.061 | filanesib 0.006 | zotarolimus -0.077 | idasanutlin -0.072 | alisertib -0.053 | [2] -0.125 | gefitinib 0.032 | [3] 0.047 | lapatinib -0.022 | pictilisib 0.118 | [4] -0.009 | crizotinib -0.12 | [5] 0.002 | [6] -0.034 | gandotinib 0.031 | [7] -0.002 | doramapimod 0.023 | ispinesib -0.051

The listing continues.

POLR2M (UniProt P0CAP2)
active: pictilisib -0.254
inactive: [1] -0.025 | filanesib -0.004 | zotarolimus -0.05 | idasanutlin -0.022 | alisertib -0.015 | [2] 0.094 | gefitinib -0.08 | [3] 0.054 | lapatinib -0.044 | [4] 0.028 | crizotinib 0.074 | [5] 0.097 | [6] 0.044 | gandotinib 0.141 | [7] 0.012 | doramapimod 0.013 | ispinesib -0.055

POLR2B (UniProt P30876)
inactive: [1] 0.034 | filanesib 0.031 | zotarolimus -0.012 | idasanutlin -0.039 | alisertib -0.057 | [2] 0.214 | gefitinib 0.064 | [3] 0.007 | lapatinib -0.018 | pictilisib 0.076 | [4] 0.041 | crizotinib 0.032 | [5] 0.023 | [6] 0.18 | [7] 0.03 | doramapimod -0.014 | ispinesib -0.048
active: gandotinib 0.26

POLR2I (UniProt P36954)
inactive: [1] -0.012 | filanesib 0.041 | zotarolimus -0.017 | idasanutlin 0.029 | alisertib 0.061 | [2] 0.076 | gefitinib -0.003 | [3] 0.062 | lapatinib -0.006 | pictilisib -0.041 | [4] 0.003 | crizotinib 0.334 | [5] 0.052 | [6] 0.001 | gandotinib 0.336 | [7] -0.032 | doramapimod -0.047 | ispinesib 0.127
